Reference: patent US20230365653A1
These are yes or no findings as the source states them, for the method shown. Some entries that bind do so weakly or less than the wild type.

Sequences of proteins named here, by UniProt entry; tags and fusion partners are left off. A change or cut given only in a name is not applied to a line headed by its entry.
UniProt Q9NZQ7: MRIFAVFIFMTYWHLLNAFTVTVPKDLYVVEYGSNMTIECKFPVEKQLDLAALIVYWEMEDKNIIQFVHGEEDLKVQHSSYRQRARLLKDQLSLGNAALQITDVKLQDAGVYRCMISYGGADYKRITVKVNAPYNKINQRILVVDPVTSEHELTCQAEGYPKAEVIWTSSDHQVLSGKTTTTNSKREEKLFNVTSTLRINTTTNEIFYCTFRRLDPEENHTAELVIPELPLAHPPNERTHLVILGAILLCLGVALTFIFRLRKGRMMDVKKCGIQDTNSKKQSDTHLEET
UniProt P37173: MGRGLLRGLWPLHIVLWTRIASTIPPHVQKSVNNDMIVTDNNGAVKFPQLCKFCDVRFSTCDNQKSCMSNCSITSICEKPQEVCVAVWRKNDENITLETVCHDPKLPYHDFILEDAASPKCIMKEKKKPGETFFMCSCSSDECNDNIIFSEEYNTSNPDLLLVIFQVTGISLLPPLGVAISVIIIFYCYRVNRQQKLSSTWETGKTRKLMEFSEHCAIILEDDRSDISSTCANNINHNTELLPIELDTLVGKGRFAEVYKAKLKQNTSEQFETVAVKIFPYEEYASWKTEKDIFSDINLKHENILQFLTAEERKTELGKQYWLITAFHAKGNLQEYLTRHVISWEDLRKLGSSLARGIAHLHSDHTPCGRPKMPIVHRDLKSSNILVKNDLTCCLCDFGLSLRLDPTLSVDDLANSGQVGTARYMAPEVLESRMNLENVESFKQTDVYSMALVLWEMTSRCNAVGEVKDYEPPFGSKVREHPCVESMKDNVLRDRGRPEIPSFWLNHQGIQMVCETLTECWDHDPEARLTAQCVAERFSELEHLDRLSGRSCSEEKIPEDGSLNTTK

Tests used:
[1] = target: recombinant human PD-L1-his protein (Accession No.: NP_054862.1, 19 aa-238 aa) (human) (UniProt Q9NZQ7); assay: BLI (Octet QKe)
[2] = target: recombinant human PD-L1-his protein (Accession No.: NP_054862.1, 19 aa-238 aa) (human) (UniProt Q9NZQ7); assay: ELISA, target coated at 1 µg/ml

- binding [1]: binds
- binding [2]: binds
Substance: anti-human PD-L1 nanobody/TGF-β RII fusion protein mutant hzF2-TGF-β RIIm2 (from UniProt P37173 24-159)
